For at least one compound, name, drawing or mass did not settle the structure.
Tests used:
[1] = system: BPDCN cell lines (CAL-1, PMDC05); test: Cell survival rate of BPDCN cell lines with HDAC and BCL2 family protein inhibitors; type: cell-based; conditions: 1 nM to 10000 nM, 48 hours, not associated with presence or absence of MYC expression, FIG. 11
[2] = system: BPDCN cell line CAL-1 (MYC+BPDCN); test: Cell survival rate (Cell Titer-Glo cell growth assay), CAL-1; type: cell-based
Excerpt: The cell lines used were 4 lines: BPDCN cell lines CAL-1 (MYC^+BPDCN; Non Patent Literature 11; obtained from Nagasaki University) and PMDC05 (MYC-BPDCN; Non Patent Literature 12; obtained from Niigata University), a positive control plasma cell neoplasm KMS12PE (obtained from JCRB Cell Bank) having the increased expression of MYC, and a negative control leukemia cell line K562 (obtained from JCRB Cell Bank) in which no MYC gene rearrangement was seen.
The CAL-1, PMDC05, or KMN12PE cells at 4000 cells/well or K562 at 1000 cells/well were inoculated to 96-well cell culture plates. […] The cell survival rates were measured using a cell growth assay kit using CTG reagent (Cell Titer-Glo, manufactured by Promega Corp.).
Aurora kinase inhibitors, albeit not agents directly suppressing MYC expression, were analyzed for their effects in the present invention. […] Each inhibitor was added from 1 nm to 10000 nM to the medium of the cells of each line. 48 hours later, the survival rates of these cells were analyzed (FIG. 10).
Each inhibitor was added in the concentration of 1 nM to 10000 nM to the 4 cell lines described above. The survival rates of these cells were analyzed 48 hours later (FIG. 11).

Row | SMILES | inhibitory effect on the BPDCN cell lines (survival rate) [1] | growth suppressive or inhibitory effect on CAL-1 compared with PMDC05 cells ([2]; 1 nM to 10000 nM, 48 hours, FIG. 10) | growth suppression of BPDCN cell lines that exhibited MYC expression ([2]; summary statement in the description)
1 | CC1(C)CCC(CN2CCN(c3ccc(C(=O)NS(=O)(=O)c4ccc(NCC5CCOCC5)c([N+](=O)[O-])c4)c(Oc4cnc5[nH]ccc5c4)c3)CC2)=C(c2ccc(Cl)cc2)C1 [venetoclax] | strong inhibitory effect | – | –
2 | CCN(CCCOc1ccc2c(Nc3cc(CC(=O)Nc4cccc(F)c4)n[nH]3)ncnc2c1)CCOP(=O)(O)O [barasertib] | – | higher growth suppressive or inhibitory effect | effective
3 | Cc1[nH]c2ccccc2c1CCNCc1ccc(/C=C/C(=O)NO)cc1 [panobinostat] | strong inhibitory effect | – | –

— patent publication US20230323475A1, “TEST METHOD, OF DIVIDING BLASTIC PLASMACYTOID DENDRITIC CELL NEOPLASM (BPDCN) INTO SUBTYPES” (JAPANESE FOUNDATION FOR CANCER RESEARCH, priority 2016, published 2023)
